The other results are listed elsewhere or left out.

The experiment concerns the target T1, OsSMF1 (Oryza sativa, UniProt Q6ZLB0 1-436).
T1 sequence: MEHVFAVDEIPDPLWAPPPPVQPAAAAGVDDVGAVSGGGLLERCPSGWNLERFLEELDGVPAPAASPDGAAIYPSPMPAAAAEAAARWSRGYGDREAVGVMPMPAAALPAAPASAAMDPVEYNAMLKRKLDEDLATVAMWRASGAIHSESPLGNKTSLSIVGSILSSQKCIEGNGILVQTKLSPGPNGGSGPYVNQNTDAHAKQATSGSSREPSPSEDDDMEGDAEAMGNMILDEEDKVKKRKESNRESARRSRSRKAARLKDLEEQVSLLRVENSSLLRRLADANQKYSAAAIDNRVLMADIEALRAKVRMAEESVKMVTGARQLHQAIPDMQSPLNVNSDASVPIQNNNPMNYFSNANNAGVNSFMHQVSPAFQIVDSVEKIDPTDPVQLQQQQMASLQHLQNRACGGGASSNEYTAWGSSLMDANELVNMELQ
Description: protein-binding microarray (RPBM); PBS, 2% BSA, 51.3 ng/ul salmon testes DNA, 50 uM zinc acetate, 200 nM TF, 25 C, 1 h; high values mean tight binding. Conditions: protein: recombinant; tags: N-terminal polyhistidine and DsRed monomer fusion (pET32a); chain copies: 2; label: CyDye5-dUTP incorporated in the synthesized complementary strand; 3' TTTTT single-stranded linker to array surface; dsDNA, one strand shown. The essentials: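 Ni–NTA purification followed expression in E. coli BL21-CodonPlus of transcription factors fused N-terminally to a polyhistidine tag and DsRed. At 200 nM in PBS with 2% BSA, salmon testes DNA and 50 µM zinc acetate, the protein was incubated for 1 h at 25 °C with a custom Agilent array that had been primer-extended with Cy5-dUTP and blocked with 2% BSA. After washing, the array was read on an Axon 4000B scanner. The binding signal is per-feature fluorescence intensity in arbitrary units.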
With “CAACTGAACTTGCTGCATGTACGCAGTCACTCCCACCCCACGGAGTCACCTAGTGCAG”, the binding signal was 3870 fluorescence intensity (a.u.). As to “CGATTTTCCACCGTTCGCATACGTGGACCGCCCGGGCCAACGGAGTCACCTAGTGCAG”, the binding signal is 7620 fluorescence intensity (a.u.).

On to “GTAACAGTAAACTGGTGAGTATAGCTTGATACATTGAGCACGGAGTCACCTAGTGCAG”, for which the binding signal is 3210 fluorescence intensity (a.u.). Next, “ACTTGTCGCTAGCTCGTCATGCTGCTCCTCTTCATTGTGCCGGAGTCACCTAGTGCAG”: 3310 fluorescence intensity (a.u.); “AGCAGATGATCCTTCACCACGTACGCCAAGTAGCGGACAGCGGAGTCACCTAGTGCAG”: 4330 fluorescence intensity (a.u.). Next, “AATTTAGGATCCACGTATTACAGATGGTGAGATTGGTAATCGGAGTCACCTAGTGCAG”: 4210 fluorescence intensity (a.u.); “AAAGCCGAGAGCCCTTTCGGCTGCCCACGTCCCCACTCCTCGGAGTCACCTAGTGCAG”: 5130 fluorescence intensity (a.u.). In the case of “CACACCATCAATCACACGTACGAGCAGTTTCCGCTTCTTTCGGAGTCACCTAGTGCAG”, the binding signal was 3370 fluorescence intensity (a.u.). Turning to “GAATCTAGTAGCTTGCATCCTTTACATCTTCTCATCCTGTCGGAGTCACCTAGTGCAG”, the binding signal is 32700 fluorescence intensity (a.u.). As for “GCATATTCTGAAAATTCTCCTGCCCGACCGACGTCAGCGACGGAGTCACCTAGTGCAG”, the figure is 5750 fluorescence intensity (a.u.). Next, “TGGACGCCTAGAAGCTACAAATCCATGGCGGCCATAGATGCGGAGTCACCTAGTGCAG”: 26800 fluorescence intensity (a.u.); “AATTCTAAACAAGGCTTGGTTACCCAACATTTTGATATGTCGGAGTCACCTAGTGCAG”: 14000 fluorescence intensity (a.u.). Next, “GCCTGTGCCGTTGGATTGTAATCAACGGCTAGGATGCTTGCGGAGTCACCTAGTGCAG”: 3920 fluorescence intensity (a.u.); “GGTGGTGGGTAGGTGCTGTTCTTATTTGGATCCTAAGACTCGGAGTCACCTAGTGCAG”: 4300 fluorescence intensity (a.u.). Regarding “TGCCATTTTAAACCATACCGTTGTTTGGTAAAATTAACAACGGAGTCACCTAGTGCAG”, the binding signal is 31500 fluorescence intensity (a.u.). “AGCTCATCCATGCAGCTGTGACGCTGACGCAGATCAACCACGGAGTCACCTAGTGCAG”: the binding signal is 5010 fluorescence intensity (a.u.).

“TATCAGTAAGCTAAATTCTGTGAAGTTTTGGTAATGTTGGCGGAGTCACCTAGTGCAG”: the binding signal was 20000 fluorescence intensity (a.u.). Next, “CGCGGCCGGCTCTCCCTATACAAGCGCCACGTCGCCGGCGCGGAGTCACCTAGTGCAG”: 8560 fluorescence intensity (a.u.); “CCGCCGCCTCCGCCGCGAAGCGTACACGTCAGCGAGCGAGCGGAGTCACCTAGTGCAG”: 13900 fluorescence intensity (a.u.).

Consider “CATCTCCAGCCACGTATAAACCCAACCAAACACCCTCCCCCGGAGTCACCTAGTGCAG”, for which the binding signal was 3180 fluorescence intensity (a.u.). For the sequence “GTGATGCCGCTCTCTCTTTCTTGCGTGTACTTCCGGGTGGCGGAGTCACCTAGTGCAG”, the binding signal is 4460 fluorescence intensity (a.u.). Turning to “ATGCTTATTCAGATTTGTTTGGGGACATAAATCCTGATGACGGAGTCACCTAGTGCAG”, the binding signal is 3270 fluorescence intensity (a.u.). For “AATTAGTCCATTAGTGTCATCAGCATGCTTAACAAGAACTCGGAGTCACCTAGTGCAG”, the binding signal was 4700 fluorescence intensity (a.u.).

On to “TGAAGTAGGTGATCATCAGCATCACTAGTTCAGTACTTAACGGAGTCACCTAGTGCAG”, for which the binding signal is 3280 fluorescence intensity (a.u.). As for “CATCAAGTCGCTGCCGTCGGTGATGACGGTGCGCAGCTGTCGGAGTCACCTAGTGCAG”, the figure is 4270 fluorescence intensity (a.u.); as for “ACTTTCCATAAGGTTGTAACGCCACCTGTGCAGCCACCAACGGAGTCACCTAGTGCAG”, 4050 fluorescence intensity (a.u.). As to “GCGATGCCGGCGGCCGCCACGTCACGCGCCTCGCCATCCACGGAGTCACCTAGTGCAG”, the binding signal was 17200 fluorescence intensity (a.u.). Next, “ATCTCTTACTACTCGTTTCACTACTAGTATTTGTCAGTTTCGGAGTCACCTAGTGCAG”: 6320 fluorescence intensity (a.u.); “ATTGACTTATTGTGATGAATTATCTGGTACACGTCTCTAACGGAGTCACCTAGTGCAG”: 3390 fluorescence intensity (a.u.). As for “TGCTGCAGCGTGGCGCAGAGCCGATTTGCTGCGCTGTCGCCGGAGTCACCTAGTGCAG”, the binding signal is 3970 fluorescence intensity (a.u.). As for “GAAGATTTGCGGGTGAGGATCTATTTTGTACCATTCCCTTCGGAGTCACCTAGTGCAG”, the figure is 3580 fluorescence intensity (a.u.); as for “AATATATAATGAGTCAAGCGTCATGTCTGTCGCAGTGTAACGGAGTCACCTAGTGCAG”, 4800 fluorescence intensity (a.u.). Next, “CCCAGACGCCCCATGCTGAATTCACCGGCGGCGAGATGGACGGAGTCACCTAGTGCAG”: 4290 fluorescence intensity (a.u.). For the sequence “TGGATCCGGCCCTGCATGTCCGTCCTCGCCGGTGGGCGCTCGGAGTCACCTAGTGCAG”, the binding signal is 41400 fluorescence intensity (a.u.). Take “GCTCCGGGTCTGGGAACCTGCTGTCACAGCCGTGACCGTGCGGAGTCACCTAGTGCAG”: the binding signal was 3820 fluorescence intensity (a.u.). Consider “GGTGGTTGGTCTTGTCATTGCTCGTGCATGTCAGCACAGTCGGAGTCACCTAGTGCAG”, for which the binding signal was 4580 fluorescence intensity (a.u.). Turning to “CAATAAACAAATCAAAATAAAGCTAACACGTGGCATGCCACGGAGTCACCTAGTGCAG”, the binding signal is 13700 fluorescence intensity (a.u.).

With “TTACTCTGACTCCCTAGCTAGCACAGGTGGTCGTACGTTGCGGAGTCACCTAGTGCAG”, the binding signal was 3480 fluorescence intensity (a.u.). For the sequence “AAAGTTAACTTGATCAAACTTGCTTAACATAAGATGTGATCGGAGTCACCTAGTGCAG”, the binding signal was 3160 fluorescence intensity (a.u.). As for “ATCTACTTATGTCACCCACTCTTAGCCAATATCATTCGCTCGGAGTCACCTAGTGCAG”, the figure is 4110 fluorescence intensity (a.u.).

In the case of “TTATGTGATAGGTTCTCCGTGATCGCCGCCGACGCCGACGCGGAGTCACCTAGTGCAG”, the binding signal is 3370 fluorescence intensity (a.u.). As for “GCGGTATGACAACTGTGTAGCCTAGTCATCGTAGTAGCCACGGAGTCACCTAGTGCAG”, the figure is 4280 fluorescence intensity (a.u.).
